Assay results as given in PubChem BioAssay AID1487 (National Center for Advancing Translational Sciences (NCATS), 2009).
Values joined by “and” are separate entries in the source; they are usually repeats but may differ in a detail not shown here. Equal entries are not always repeated. The list shows a part of the results. Further columns of the screen follow, without active or inactive calls. Compounds called inactive in the main read-out are mostly missing here. The note in brackets gives the kind of curve behind each potency; many fits are weak.

Experiment: qHTS Assay for Modulators of Lamin A Splicing
Conditions: HeLa LMNA splicing GFP/RFP minigene ratio, 48 h
How it was run: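 S3 HeLa stable clones carrying a lamin A-EGFP splicing minigene plus DsRed2 were seeded at 600 cells/well in Opti-MEM with 2% FBS, pin-dosed and incubated 48 h at 37°C. Acumen cytometry (488 nm) gave the GFP/RFP total-intensity ratio.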

[1] = measured here: GFP splicing reporter channel
[2] = measured here: RFP viability control channel

Row | Compound | AC50 [1] | AC50 [2]
1 | COc1ccc(-c2ocnc2C(=O)Nc2ccccc2N2CCCCC2)cc1 | 35.5 µM [rising, single point] | 31.6 µM [rising, single point]
2 | COC(=O)Nc1nc2ccc(C(=O)c3ccccc3)cc2[nH]1 | 1 µM [falling, full curve] | 0.891 µM [falling, full curve]
3 | Cc1scc(C(=O)NNC(=S)NCC2CCCO2)c1-c1ccccc1 (stereo not given) | – | 35.5 µM [rising, single point]
4 | CC(C)OC(=O)c1c(NS(=O)(=O)c2ccccc2)sc2c1CCCC2 | – | 12.6 µM [rising, single point]
5 | c1ccc(-c2cc3nccc(-c4ccccn4)n3n2)cc1 | – | 35.5 µM [rising, single point]
6 | COc1ccc(-c2nnn(CC(=O)N(CC(=O)NC3CCCC3)c3cccc(C)c3)n2)cc1OC | 35.5 µM [rising, single point] | 35.5 µM [rising, single point]
7 | Cc1nc2cc(N3CCOCC3)c(NC(=O)C3CC3)cc2c(=O)n1Cc1ccccc1 | – | 2.24 µM [rising, single point]
8 | c1ccc2oc(Cc3ccc(Cc4nc5ccccc5o4)cc3)nc2c1 | 12.6 µM [rising, single point] | 20 µM [rising, single point]
9 | CCOc1ccc(OCC)c(NC(=O)c2cnn(-c3ccc(F)cc3)c2C2CCN(C(=O)OC(C)(C)C)CC2)c1 | 2.82 µM [falling, partial curve] | –
10 | COc1cccc(-c2cncnc2NCc2cccc(C)c2)c1 | 22.4 µM [falling, partial curve] | 20 µM [falling, partial curve]
11 | CCCNCc1cc(Br)ccc1OCC(=O)NCCc1ccccc1 | 0.0891 µM [rising, full curve, poor fit] | 0.0891 µM [rising, full curve]
12 | CCOc1ccc(NC(=O)Nc2ccc3nsnc3c2)cc1 | 1.78 µM [falling, full curve, poor fit] | 0.0501 µM [falling, full curve]
13 | O=C(c1cc2c(s1)CCCC2)N1CCN(S(=O)(=O)c2ccccc2C(F)(F)F)CC1 | 35.5 µM [rising, single point] | 22.4 µM [rising, single point]
14 | COc1ccc(-n2cc(CNC(C)c3ccncn3)c(-c3cccc(F)c3)n2)cc1 (stereo not given) | 0.316 µM [rising, partial curve, poor fit] | –
15 | N=C(N)c1ccc(OCCCCCOc2ccc(C(=N)N)cc2)cc1 | 3.16 µM [falling, partial curve] and 6.31 µM [rising, partial curve] and 12.6 µM [rising, single point] | 3.16 µM [falling, single point] and 10 µM [rising, partial curve] and 3.98 µM [rising, full curve, poor fit]
16 | Cc1nn(-c2ccccc2)c(N2CCCC2)c1/C=N/NC(=S)Nc1ccccc1C(F)(F)F | – | 11.2 µM [rising, partial curve]
17 | Cc1ccc(-n2ncc3c(NC4CCCC4)ncnc32)cc1 | 0.141 µM [falling, full curve, poor fit] | –
18 | COc1ccc(-c2nn(-c3ccccc3)cc2C(=O)Nc2nc(CC(C)=O)ns2)cc1 | 12.6 µM [rising, single point] | –
19 | Oc1ccc(N=C/C=C/c2cccc(Br)c2)cc1-c1nc2ccccc2s1 | 22.4 µM [rising, single point] | 20 µM [rising, partial curve]
20 | FC(F)(F)c1ccc(N2CCOCC2)c(Nc2nc3ccccc3n3cnnc23)c1 | 35.5 µM [falling, single point] | 25.1 µM [falling, single point]
21 | CCCn1cc(S(=O)(=O)c2ccccc2)c(=O)c2cc(F)c(N3CCCCCC3)cc21 | 0.355 µM [falling, partial curve] | –
22 | CC1CCn2c(nc3cc(C(=O)NCCc4ccccc4)ccc32)C1 (stereo not given) | 0.316 µM [rising, partial curve, poor fit] | 0.2 µM [rising, full curve, poor fit]
23 | Cc1cc(OC(=O)c2c(Cl)cccc2Cl)nc(C)n1 | – | 12.6 µM [rising, partial curve]
24 | COC(=O)c1ccc(C)c(NC(=O)c2ccc(Cl)c([N+](=O)[O-])c2)c1 | – | 11.2 µM [rising, partial curve]
25 | COc1ccc(NC(=O)Cn2c(SCc3ccc(F)cc3)nc3cccnc32)c(OC)c1 | 35.5 µM [falling, partial curve, poor fit] | –
26 | Cc1cccc(Oc2sc(C(=O)c3ccccc3)c(N)c2C#N)c1 | 11.2 µM [falling, single point] | 35.5 µM [falling, single point]
27 | CCN(CC)CCN1C(=O)C(=O)/C(=C(/O)c2c(C)[nH]c(C(=O)OC)c2C)C1c1cccnc1 (stereo not given) | – | 3.16 µM [falling, partial curve]

Row | Compound | AC50 [1] | AC50 [2]
28 | CCCN(CCC)C(=O)[C@@H](CCC(=O)O)NC(=O)c1ccccc1 | 2 µM [falling, partial curve] | 3.16 µM [falling, partial curve]
29 | O=C(Nc1ccc(Oc2ccc(C(=O)O)c(C(=O)O)c2)cc1)c1cccs1 | – | 22.4 µM [falling, partial curve, poor fit]
30 | CC1=C(CCN2CCN(C3CCCC3)C(CCO)C2)C(C)(C)CCC1 (stereo not given) | 5.01 µM [falling, full curve, poor fit] | 7.08 µM [falling, full curve]
31 | COc1cccc(-n2c(=O)c3c(C)c(C(=O)N(C)C)sc3n(Cc3cccc(C)c3)c2=O)c1 | – | 0.501 µM [falling, full curve, poor fit]
32 | Cc1cccnc1NC(=O)c1ccc([N+](=O)[O-])o1 | – | 31.6 µM [rising, single point]
33 | COc1cc(-c2oc3cc(O)ccc3c(=O)c2O)ccc1O | 25.1 µM [falling, partial curve] | 15.8 µM [falling, partial curve]
34 | O=C(Cc1ccc(Cl)cc1)Nc1ncc([N+](=O)[O-])s1 | 35.5 µM [rising, single point] | 35.5 µM [rising, single point]
35 | Cc1ccc(C)c(NC(=O)CSc2nnc(Cc3cccn3C)n2-c2ccc(F)cc2)c1 | – | 35.5 µM [rising, single point]
36 | CC(=O)Nc1ccc(S(=O)(=O)NCc2ccc3[nH]c(C)cc3c2)cc1 | – | 20 µM [rising, partial curve, poor fit]
37 | Cc1cc(C)c2nc(NC(=O)c3ccc4c(=O)n5c(nc4c3)CCCCC5)sc2c1 | – | 3.16 µM [rising, single point]
38 | CCOC(=O)CN(c1ccccc1)S(=O)(=O)c1ccc(F)cc1 | – | 1.12 µM [falling, partial curve, poor fit]
39 | O=C1C2C(c3ccccc3)(C(=O)N1c1ccc(Cl)cc1)C2(c1ccccc1)c1ccccc1 (stereo not given) | – | 2.82 µM [rising, partial curve]
40 | Cc1ccc(-n2nc(C)c3c(=O)[nH]c(C(F)(F)F)nc32)cc1 | 25.1 µM [rising, partial curve, poor fit] | 3.55 µM [rising, partial curve, poor fit]
41 | CCCCC1=CC2=C(c3ccco3)C(=O)C(C)(OC(=O)c3ccc(OC)cc3)C(=O)C2=CN1CCc1ccccn1 (stereo not given) | – | 3.55 µM [falling, single point]
42 | COc1ccc(-c2nc3c4ccccc4n(CC(=O)Nc4ccc(C(C)C)cc4)c(=O)n3n2)cc1 | 35.5 µM [rising, single point] | –
43 | Nc1nn(-c2ccccc2)c(N)c1N=Nc1ccccc1 | 31.6 µM [rising, single point] | 11.2 µM [rising, partial curve]
44 | CC[N+](CC)(CC#Cc1ccccc1)CC(=O)c1ccc(Cl)cc1 | – | 14.1 µM [rising, single point]
45 | CC/C(=C1/C(=O)CC(C)(C)C(C(=O)OC)C1=O)N1CCCC1 (stereo not given) | 5.62 µM [rising, single point] | –
46 | CCc1sc(Nc2cccc(C)c2)nc1-c1cc2cccc(OC)c2oc1=O | – | 5.62 µM [falling, partial curve]
47 | COc1cc(OC)cc(C(=O)NCC(=O)N2CCC(C)CC2)c1 | 1.12 µM [rising, full curve] | –
48 | OCCOCCN1CCN(C2=Nc3ccccc3Sc3ccccc32)CC1 | 0.794 µM [falling, single point] | 35.5 µM [falling, single point]
49 | Oc1ccc2ccc3[nH]cnc3c2c1 | – | 0.178 µM [falling, full curve, poor fit]
50 | COCC(C)n1c(-c2ccc3c(c2)NC(=O)CO3)csc1=Nc1ccc(OC(F)F)cc1 (stereo not given) | 5.01 µM [rising, single point] | 3.55 µM [rising, single point]
51 | COc1cc2cc(/C=C/C(=O)c3ccco3)c(Cl)nc2cc1OC | 35.5 µM [falling, single point] | 35.5 µM [falling, single point]
52 | COc1ccc(CNc2nc(-c3cccnc3)nn2C(C)=O)cc1 | – | 0.891 µM [falling, full curve, poor fit]
53 | COc1cccc(CNC(=O)c2cccc(Br)c2)c1 | – | 15.8 µM [rising, single point]

Gathered by group, the compounds so far with two or more sulfur atoms (3)
Row | Compound | AC50 [1] | AC50 [2]
3 | Cc1scc(C(=O)NNC(=S)NCC2CCCO2)c1-c1ccccc1 (stereo not given) | – | 35.5 µM [rising, single point]
4 | CC(C)OC(=O)c1c(NS(=O)(=O)c2ccccc2)sc2c1CCCC2 | – | 12.6 µM [rising, single point]
13 | O=C(c1cc2c(s1)CCCC2)N1CCN(S(=O)(=O)c2ccccc2C(F)(F)F)CC1 | 35.5 µM [rising, single point] | 22.4 µM [rising, single point]
